Data reported in patent publication USRE37950E1, “Biogradable in-situ forming implants and methods of producing the same” (priority 1990, dated 2002).
For at least one compound, name, drawing or mass did not settle the structure.

Test: Release of tetracycline from DL-PLG/NMP formulation, procedure of Example 1 without acidifying the receiving fluid, UV absorption
Type: physicochemical
Conditions: Example 9: TCH dissolved in 70% by weight 50:50 DL-PLG in NMP

CN(C)[C@@H]1C(O)=C(C(N)=O)C(=O)[C@@]2(O)C(O)=C3C(=O)c4c(O)cccc4[C@@](C)(O)[C@H]3C[C@@H]12 [TCH, Tetracycline]
drug released (after 1 day): approximately 32% | drug released (after 2 days): ~40% | drug released (after 5 days): ~57% | drug released (after 6 days): ~64% | drug released (after 7 days): ~75% | drug released (after 9 days): ~82% | drug released (after 12 days): ~92% | drug released (after 14 days): ~100%
